Assay results reported in publication PMC11189303.
These are yes or no findings as the source states them, for the method shown. In cells and extracts the contact can be indirect. These calls come from enrichment with a bait or labelling near it, and not all partners need be listed.

Sequences of proteins named here, by UniProt entry; tags and fusion partners are left off.
UniProt O60826: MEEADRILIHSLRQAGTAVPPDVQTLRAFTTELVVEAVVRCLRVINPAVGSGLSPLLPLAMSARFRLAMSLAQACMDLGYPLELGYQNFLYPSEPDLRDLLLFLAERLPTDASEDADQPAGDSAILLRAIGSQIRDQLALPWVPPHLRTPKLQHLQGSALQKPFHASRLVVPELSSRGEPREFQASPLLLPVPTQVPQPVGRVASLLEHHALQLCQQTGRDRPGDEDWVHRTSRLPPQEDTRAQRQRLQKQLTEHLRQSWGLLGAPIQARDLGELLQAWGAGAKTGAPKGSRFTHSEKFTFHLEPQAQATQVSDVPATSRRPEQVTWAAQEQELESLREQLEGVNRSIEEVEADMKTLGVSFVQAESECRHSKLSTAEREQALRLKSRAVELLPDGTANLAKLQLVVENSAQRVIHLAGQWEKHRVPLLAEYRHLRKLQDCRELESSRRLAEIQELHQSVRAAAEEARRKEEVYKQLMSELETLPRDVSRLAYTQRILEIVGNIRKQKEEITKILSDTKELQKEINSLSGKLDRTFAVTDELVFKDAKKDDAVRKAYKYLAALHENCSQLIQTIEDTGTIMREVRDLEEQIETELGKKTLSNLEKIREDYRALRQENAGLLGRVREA

B1: CAMSAP2 (Calmodulin-regulated spectrin-associated protein 2) (protein, UniProt Q08AD1 1-1489)
chain: MGDAADPREMRKTFIVPAIKPFDHYDFSRAKIACNLAWLVAKAFGTENVPEELQEPFYTDQYDQEHIKPPVVNLLLSAELYCRAGSLILKSDAAKPLLGHDAVIQALAQKGLYVTDQEKLVTERDLHKKPIQMSAHLAMIDTLMMAYTVEMVSIEKVIACAQQYSAFFQATDLPYDIEDAVMYWINKVNEHLKDIMEQEQKLKEHHTVEAPGGQKSPSKWFWKLVPARYRKEQTLLKQLPCIPLVENLLKDGTDGCALAALIHFYCPDVVRLEDICLKETMSLADSLYNLQLIQEFCQEYLNQCCHFTLEDMLYAASSIKSNYLVFMAELFWWFEVVKPSFVQPRVVRPQGAEPVKDMPSIPVLNAAKRNVLDSSSDFPSSGEGATFTQSHHHLPSRYSRPQAHSSASGGIRRSSSMSYVDGFIGTWPKEKRSSVHGVSFDISFDKEDSVQRSTPNRGITRSISNEGLTLNNSHVSKHIRKNLSFKPINGEEEAESIEEELNIDSHSDLKSCVPLNTNELNSNENIHYKLPNGALQNRILLDEFGNQIETPSIEEALQIIHDTEKSPHTPQPDQIANGFFLHSQEMSILNSNIKLNQSSPDNVTDTKGALSPITDNTEVDTGIHVPSEDIPETMDEDSSLRDYTVSLDSDMDDASKFLQDYDIRTGNTREALSPCPSTVSTKSQPGSSASSSSGVKMTSFAEQKFRKLNHTDGKSSGSSSQKTTPEGSELNIPHVVAWAQIPEETGLPQGRDTTQLLASEMVHLRMKLEEKRRAIEAQKKKMEAAFTKQRQKMGRTAFLTVVKKKGDGISPLREEAAGAEDEKVYTDRAKEKESQKTDGQRSKSLADIKESMENPQAKWLKSPTTPIDPEKQWNLASPSEETLNEGEILEYTKSIEKLNSSLHFLQQEMQRLSLQQEMLMQMREQQSWVISPPQPSPQKQIRDFKPSKQAGLSSAIAPFSSDSPRPTHPSPQSSNRKSASFSVKSQRTPRPNELKITPLNRTLTPPRSVDSLPRLRRFSPSQVPIQTRSFVCFGDDGEPQLKESKPKEEVKKEELESKGTLEQRGHNPEEKEIKPFESTVSEVLSLPVTETVCLTPNEDQLNQPTEPPPKPVFPPTAPKNVNLIEVSLSDLKPPEKADVPVEKYDGESDKEQFDDDQKVCCGFFFKDDQKAENDMAMKRAALLEKRLRREKETQLRKQQLEAEMEHKKEETRRKTEEERQKKEDERARREFIRQEYMRRKQLKLMEDMDTVIKPRPQVVKQKKQRPKSIHRDHIESPKTPIKGPPVSSLSLASLNTGDNESVHSGKRTPRSESVEGFLSPSRCGSRNGEKDWENASTTSSVASGTEYTGPKLYKEPSAKSNKHIIQNALAHCCLAGKVNEGQKKKILEEMEKSDANNFLILFRDSGCQFRSLYTYCPETEEINKLTGIGPKSITKKMIEGLYKYNSDRKQFSHIPAKTLSASVDAITIHSHLWQTKRPVTPKKLLPTKA
B2: HAUS4 (protein, UniProt Q9H6D7 1-363)
chain: MASGDFCSPGEGMEILQQVCSKQLPPCNLSKEDLLQNPYFSKLLLNLSQHVDESGLSLTLAKEQAQAWKEVRLHKTTWLRSEILHRVIQELLVDYYVKIQDTNVTSEDKKFHETLEQRLLVTELMRLLGPSQEREIPPLLGLEKADLLELMPLSEDFVWMRARLQQEVEEQLKKKCFTLLCYYDPNSDADSETVKAAKVWKLAEVLVGEQQQCQDAKSQQKEQMLLLEKKSAAYSQVLLRCLTLLQRLLQEHRLKTQSELDRINAQYLEVKCGAMILKLRMEELKILSDTYTVEKVEVHRLIRDRLEGAIHLQEQDMENSRQVLNSYEVLGEEFDRLVKEYTVLKQATENKRWALQEFSKVYR
B3: HAUS5 (protein, UniProt O94927 1-633)
chain: MELAQEARELGCWAVEEMGVPVAARAPESTLRRLCLGQGADIWAYILQHVHSQRTVKKIRGNLLWYGHQDSPQVRRKLELEAAVTRLRAEIQELDQSLELMERDTEAQDTAMEQARQHTQDTQRRALLLRAQAGAMRRQQHTLRDPMQRLQNQLRRLQDMERKAKVDVTFGSLTSAALGLEPVVLRDVRTACTLRAQFLQNLLLPQAKRGSLPTPHDDHFGTSYQQWLSSVETLLTNHPPGHVLAALEHLAAEREAEIRSLCSGDGLGDTEISRPQAPDQSDSSQTLPSMVHLIQEGWRTVGVLVSQRSTLLKERQVLTQRLQGLVEEVERRVLGSSERQVLILGLRRCCLWTELKALHDQSQELQDAAGHRQLLLRELQAKQQRILHWRQLVEETQEQVRLLIKGNSASKTRLCRSPGEVLALVQRKVVPTFEAVAPQSRELLRCLEEEVRHLPHILLGTLLRHRPGELKPLPTVLPSIHQLHPASPRGSSFIALSHKLGLPPGKASELLLPAAASLRQDLLLLQDQRSLWCWDLLHMKTSLPPGLPTQELLQIQASQEKQQKENLGQALKRLEKLLKQALERIPELQGIVGDWWEQPGQAALSEELCQGLSLPQWRLRWVQAQGALQKLCS

molecular target: CCDC22 (human) (UniProt O60826); test: affinity purification with mass spectrometry; MAC-tagged bait stably expressed in Flp-In T-REx 293 (tetracycline 24 h); cleared lysate (50 mM HEPES pH 8.0, 150 mM NaCl, 0.5% IGEPAL) on Strep-Tactin beads, eluted with biotin; high-confidence interactions by SAINTexpress (BFDR < 0.05) and CRAPome against MAC-tagged GFP controls

**Q.** With B1 as the binder, how does the binding read?
**A.** binds

**Q.** With B2 as the binder, how does the binding read?
**A.** binds

**Q.** How did the binding turn out when B3 was run?
**A.** binds
